PubChem BioAssay AID1259266 – Sanger Institute – 2017
This is a random part of 794 reagents. 16 of them (2%) count as active. 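Calls reflect knock-down alone, not drug synergy; viability seems capped at 1 and z-scores at 0.585.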 Entries without a mark were called inactive. Reagent sequences are not shown. Not stated in the record: the amount of reagent, the time to read-out.

Aim: 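Search kinases and colorectal cancer genes for essential genes and drug synergy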 (primary screen)
System: LS123 human colorectal cancer cells
Reagent: siRNA pool against human genes
Conditions: anchor drugs BYL719 (1 µM), cetuximab (5 µg/ml) or trametinib (10 nM), each chosen to barely slow growth alone; DMSO vehicle as the drug-free arm
Measured: 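Replicate-averaged viability scaled to non-targeting pools, robust z-score for siRNA alone, and a synergy score per anchor drug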
Reading the numbers: robust z-score, knock-down alone: higher = more cells surviving after knock-down; viability, knock-down alone: higher = more viable cells; synergy score with trametinib and synergy score with BYL719 and synergy score with cetuximab: higher = stronger synthetic lethality with drug
Rule for the call: 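a knock-down counts as essential if its z-score without drug is under -3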
Calls: active = essential (knock-down alone cuts viability); inactive = no change

| gene | robust z-score, knock-down alone | viability, knock-down alone (fraction of control) | synergy score with trametinib | synergy score with BYL719 | synergy score with cetuximab |
| --- | --- | --- | --- | --- | --- |
| IPMK (GeneID 253430) | 0.247 | 0.98 | -0.112 | -0.0519 | -0.0321 |
| TLK1 (GeneID 9874) | -0.451 | 0.938 | 0.0154 | -0.0105 | 0.0337 |
| RPS6KL1 (GeneID 83694) | -1 | 0.906 | 0.01 | -0.091 | -0.0557 |
| GRK5 (GeneID 2869) | 0.585 | 1 | 0.00325 | -0.159 | -0.0122 |
| CNOT1 (GeneID 23019) | -3.45 (active) | 0.76 | 0.119 | -0.0107 | 0.0826 |
| STK26 (GeneID 51765) | 0.585 | 1 | -0.0943 | -0.0941 | -0.0122 |
| FN3K (GeneID 64122) | 0.585 | 1 | 0.00944 | -0.11 | -0.0122 |
| SIK2 (GeneID 23235) | 0.585 | 1 | -0.091 | -0.0509 | -0.0116 |
| LATS2 (GeneID 26524) | 0.585 | 1 | -0.131 | -0.159 | -0.0122 |
| TCF12 (GeneID 6938) | -0.328 | 0.946 | 0.0107 | -0.0781 | -0.0148 |
| MAP2K2 (GeneID 5605) | 0.585 | 1 | -0.144 | -0.077 | -0.0122 |
| PFKFB2 (GeneID 5208) | -0.879 | 0.913 | -0.0467 | -0.0643 | 0.0318 |
| PLK3 (GeneID 1263) | 0.585 | 1 | -0.0681 | -0.0136 | 0.0266 |
| GRK7 (GeneID 131890) | -0.457 | 0.938 | -0.0689 | -0.0275 | -0.0513 |
| MKNK1 (GeneID 8569) | 0.585 | 1 | -0.0138 | -0.082 | -0.0122 |
| PGK2 (GeneID 5232) | 0.585 | 1 | -0.00907 | -0.0412 | -0.0122 |
| MGA (GeneID 23269) | -1.2 | 0.894 | -0.00279 | -0.0637 | 0.0385 |
| PKN3 (GeneID 29941) | 0.585 | 1 | -0.0243 | -0.019 | 0.0639 |
| ROS1 (GeneID 6098) | -1.4 | 0.882 | -0.0544 | -0.147 | -0.0228 |
| SBK1 (GeneID 388228) | 0.528 | 0.997 | -0.0402 | -0.0702 | -0.0155 |
| TSSK3 (GeneID 81629) | 0.248 | 0.98 | -0.0292 | -0.114 | -0.032 |
| ARAF (GeneID 369) | 0.585 | 1 | -0.0921 | -0.111 | -0.0122 |
| MAST3 (GeneID 23031) | -0.677 | 0.925 | -0.0361 | -0.0592 | -0.0862 |
| PBK (GeneID 55872) | 0.3 | 0.983 | -0.113 | -0.127 | 0.0367 |
| GUCY2D (GeneID 3000) | -3.31 (active) | 0.769 | -0.0355 | -0.0942 | 0 |
| ACVRL1 (GeneID 94) | 0.005 | 0.966 | -0.214 | -0.188 | -0.0332 |
| PKIB (GeneID 5570) | 0.585 | 1 | -0.0696 | -0.145 | -0.0122 |
| NEK8 (GeneID 284086) | -2.58 | 0.812 | -0.0684 | -0.0147 | 0.0571 |
| PRKACB (GeneID 5567) | 0.585 | 1 | -0.0586 | -0.0635 | 0.0343 |
| PIK3R2 (GeneID 5296) | 0.585 | 1 | -0.165 | -0.159 | -0.0122 |
| STK16 (GeneID 8576) | 0.585 | 1 | -0.186 | -0.159 | -0.0122 |
| PRKCQ (GeneID 5588) | 0.585 | 1 | 0.0256 | -0.0563 | -0.0122 |
| MAGI2 (GeneID 9863) | 0.585 | 1 | -0.151 | -0.0652 | -0.0122 |
| MAPK13 (GeneID 5603) | 0.585 | 1 | -0.0599 | -0.089 | -0.0122 |
